Data source: PubChem BioAssay AID1159578 (Peter MacCallum Cancer Centre, 2015)

Test: 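Genome-wide hunt for genes controlling movement of lymphatic endothelial cells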 (primary screen)
System: human lymphatic endothelial cells
Knock-down reagent: siRNA pool against human genes, 40 nM
Duration: 48 h after transfection
Detection: 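High-content imaging of dye-stained cells in a scratch assay measures filled wound area and nuclei per well; duplicate means given as ratio to mock and robust z-score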
Direction: migration robust z-score: higher = faster migration into the scratch; nuclei per well: higher = more cells in the well
Call rule: 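Migration changed when robust z exceeds 2 or falls below -2 and mean nuclei number is at least 3300; otherwise not called changed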
Meaning of the calls: active = migration changed; inactive = no migration change, or too few cells
The deposit covers about 18,000 reagents; this is a random part of them. About 1,030 of all reagents (5.7%) count as active. 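Inactive calls also include pools with fewer than 3300 nuclei, whose migration was not assessed.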 Raw values are not corrected between plates. Unmarked entries are inactive. Not all columns of the deposit are shown.

gene	PubChem SID	migration robust z-score	nuclei per well, duplicate mean
SLC44A3	SID255362733	-0.16	5536
TRDN	SID255355011	0.24	5284
LAMB3	SID255350721	-2.96 (active)	4315
GOLGA8B	SID255365900	0.86	6250
ADISSP	SID255358319	0.63	5547
PIGP	SID255357572	0.76	6404
H3-4	SID255353449	-1.58	4364
MEP1A	SID255350938	0.68	6936
SSX7	SID255364615	1.64	7056
RPS27L	SID255357442	1.27	6470
DNAAF8	SID255363287	1.14	5772
VTN	SID255353120	0.78	7046
CC2D2A	SID255359458	1.04	5358
SBDS	SID255357493	0.15	5832
VPS37D	SID255363616	-0.81	7610
PCDHB10	SID255359012	-0.01	6484
SSX2	SID255352652	-1.37	4315
ISCA1P1	SID255365554	-0.15	6917
PPP1R12A	SID255351129	-1.53	5176
GPR52	SID255354172	-0.39	6221
PI4K2B	SID255358582	0.08	5714
CTXN3	SID255366057	1.69	7002
PNMA6A	SID255361618	-1.76	5230
FEM1A	SID255358671	-0.18	5462
USP38	SID255361435	0.03	5219
TREM2	SID255357984	-0.52	4344
MARK1	SID255350876	-2.49 (active)	4574
FOXF1	SID255349701	0.28	4796
MATR3	SID255354551	0.96	6340
PPID	SID255351725	0	4758
CCL19	SID255352333	-0.06	5628
GON4L	SID255358216	-0.77	6096
RTRAF	SID255357825	-0.24	4804
CCDC107	SID255364124	-0.24	4575
DEFB103A	SID255365867	-1.44	5104
STAMBPL1	SID255359468	0.05	4538
PIEZO1	SID255354549	0.96	6353
PHYHD1	SID255364456	-0.52	6280
ADAM15	SID255353789	-0.29	7051
ELOVL6	SID255360196	-0.18	5468
ULBP2	SID255360761	-0.34	5968
GPRC5A	SID255353995	1.02	6154
ALG12	SID255360209	0	6749
BRINP3	SID255365041	0.4	4975
ACSF3	SID255363990	-0.13	5556
CT45A1	SID255366030	0.21	5294
LACC1	SID255363235	-0.32	5817
GRIK1	SID255350036	0.49	5071
GCSAM	SID255364552	-0.25	6330
DIO1	SID255349304	-3.11 (active)	4129
XCR1	SID255349982	-0.2	7126
ARPC5L	SID255360970	-1.03	5824
SLC2A8	SID255357264	1.19	5598
ZNF107	SID255357710	0.72	6582
C2CD2L	SID255354610	0.55	6528
KDM6B	SID255356014	-0.05	5632
TNFAIP3	SID255352914	0.16	4699
